Laboratory results published in patent US20230310386A1, “INJECTABLE PHARMACEUTICAL COMPOSITIONS AND USES THEREOF” (Intervet Inc., priority 2020, published 2023).
“And” between values parts separate entries of the source, which are not always exact repeats. Equal entries are not always repeated. At least one compound was matched to its structure with a doubt left.

What was measured:
[1] = Sterilization of microspheres by electron-beam and gamma irradiation: change in moxidectin assay; assay type: physicochemical
[2] = Dose accuracy study of the reconstituted composition comprising moxidectin and fluralaner; assay type: physicochemical; conditions: reconstituted composition of Example 9, 1 mL doses #1-6
Protocol: The vial comprising moxidectin microspheres from Example 3 and fluralaner particles from Example 7 were reconstituted with 17 mL of the aqueous carrier of Example 6. During reconstitution the vial containing the moxidectin microspheres and fluralaner particles was rotated while being held horizontally throughout carrier addition.
Once all the carrier was added, the vial was shaken for 1 minute.
Herein, the vial with the reconstituted composition as described above was manipulated in one of the following ways: • vigorously hand shaken for 1, 2 or 3 minutes prior to sampling; • vigorously hand shaken for 3 minutes and mixed using the syringe 5 times prior to sampling; or • vigorously hand shaken for 3 minutes, mixed using the syringe 5 times and vortexed for […] prior to sampling.
After the solid material was completely suspended, six 1 mL doses were sampled from the vial. Prior to each dose, the vial was vigorously shaken for 15 seconds to avoid settling between samples.
Each of the six doses were transferred to a separate 50 mL volumetric flask along with 10 mL of water: then the samples were diluted to volume with 50/50 acetonitrile/isopropanol and sonicated for 20 minutes.
These samples were analysed to determine the moxidectin concentration.
Additionally, 1 mL of the samples were transferred into separate 25 mL volumetric flasks and diluted with 40/40/20 acetonitrile/isopropanol/water. The fluralaner concentrations were determined from these diluted samples.

CO/N=C1\C[C@]2(C[C@@H]3C[C@@H](C/C=C(\C)C[C@@H](C)/C=C/C=C4\CO[C@@H]5[C@H](O)C(C)=C[C@@H](C(=O)O3)[C@]45O)O2)O[C@H](/C(C)=C/C(C)C)[C@H]1C [Moxidectin, moxidectin]
Assay ([1]; Electron Beam, 15 kGy, 5° C., nitrogen overlay): 93.06 % of non-irradiated assay | Assay ([1]; Electron Beam, 15 kGy, 5° C., not sparged): 93.42 % of non-irradiated assay | Assay ([1]; Electron Beam, 15 kGy, amb, nitrogen overlay): 94.98 % of non-irradiated assay | Assay ([1]; Electron Beam, 15 kGy, amb, not sparged): 96.08 % of non-irradiated assay | Assay ([1]; Electron Beam, 20 kGy, 5° C., nitrogen overlay): 94.03 % of non-irradiated assay | Assay ([1]; Electron Beam, 20 kGy, 5° C., not sparged): 94.07 % of non-irradiated assay | Assay ([1]; Electron Beam, 20 kGy, amb, nitrogen overlay): 95.91 % of non-irradiated assay | Assay ([1]; Electron Beam, 20 kGy, amb, not sparged): 95.31 % of non-irradiated assay | Assay ([1]; Electron Beam, 25 kGy, 5° C., nitrogen overlay): 93.48 % of non-irradiated assay | Assay ([1]; Electron Beam, 25 kGy, 5° C., not sparged): 93.15 % of non-irradiated assay | Assay ([1]; Electron Beam, 25 kGy, amb, nitrogen overlay): 95.11 % of non-irradiated assay | Assay ([1]; Electron Beam, 25 kGy, amb, not sparged): 94.94 % of non-irradiated assay | Assay ([1]; Gamma Irradiation, 15-18 kGy, 5° C., nitrogen overlay): 95.76 % of non-irradiated assay | Assay ([1]; Gamma Irradiation, 15-18 kGy, 5° C., not sparged): 95.59 % of non-irradiated assay | Assay ([1]; Gamma Irradiation, 15-18 kGy, amb, nitrogen overlay): 97.69 % of non-irradiated assay | Assay ([1]; Gamma Irradiation, 15-18 kGy, amb, not sparged): 97.18 % of non-irradiated assay | Assay ([1]; Gamma Irradiation, 20-24 kGy, 5° C., nitrogen overlay): 93.64 % of non-irradiated assay | Assay ([1]; Gamma Irradiation, 20-24 kGy, 5° C., not sparged): 94.30 % of non-irradiated assay | Assay ([1]; Gamma Irradiation, 20-24 kGy, amb, nitrogen overlay): 96.67 % of non-irradiated assay | Assay ([1]; Gamma Irradiation, 20-24 kGy, amb, not sparged): 95.51 % of non-irradiated assay | Assay ([1]; Gamma Irradiation, 25-30 kGy, 5° C., nitrogen overlay): 95.06 % of non-irradiated assay | Assay ([1]; Gamma Irradiation, 25-30 kGy, 5° C., not sparged): 93.13 % of non-irradiated assay | Assay ([1]; Gamma Irradiation, 25-30 kGy, amb, nitrogen overlay): 96.03 % of non-irradiated assay | Assay ([1]; Gamma Irradiation, 25-30 kGy, amb, not sparged): 95.23 % of non-irradiated assay | Moxidectin Percent Label Claim ([2]; hand shaken for 1 minute): 103.45 Percent Label Claim and 89.32 Percent Label Claim and 103.25 Percent Label Claim and 101.25 Percent Label Claim and 103.84 Percent Label Claim and 101.70 Percent Label Claim | Moxidectin Percent Label Claim ([2]; hand shaken for 2 minutes): 101.80 Percent Label Claim and 102.26 Percent Label Claim and 100.54 Percent Label Claim and 101.89 Percent Label Claim and 96.62 Percent Label Claim and 104.02 Percent Label Claim | Moxidectin Percent Label Claim ([2]; hand shaken for 3 minutes): 99.92 Percent Label Claim and 98.29 Percent Label Claim and 98.52 Percent Label Claim and 98.71 Percent Label Claim and 101.21 Percent Label Claim and 85.54 Percent Label Claim | Moxidectin Percent Label Claim ([2]; hand shaken for 3 minutes, mixed using a syringe, and vortexed): 93.87 Percent Label Claim and 97.78 Percent Label Claim and 97.72 Percent Label Claim and 99.89 Percent Label Claim and 98.19 Percent Label Claim and 95.12 Percent Label Claim
